According to paper PMC3078934:
No constants are given. Whether binding was seen depends on the method and setting. In cells and extracts the contact can be indirect.

Amino acid sequences for entries named in this document (tags omitted). Residues count along the entry.
UniProt P35968, residues 20-1356: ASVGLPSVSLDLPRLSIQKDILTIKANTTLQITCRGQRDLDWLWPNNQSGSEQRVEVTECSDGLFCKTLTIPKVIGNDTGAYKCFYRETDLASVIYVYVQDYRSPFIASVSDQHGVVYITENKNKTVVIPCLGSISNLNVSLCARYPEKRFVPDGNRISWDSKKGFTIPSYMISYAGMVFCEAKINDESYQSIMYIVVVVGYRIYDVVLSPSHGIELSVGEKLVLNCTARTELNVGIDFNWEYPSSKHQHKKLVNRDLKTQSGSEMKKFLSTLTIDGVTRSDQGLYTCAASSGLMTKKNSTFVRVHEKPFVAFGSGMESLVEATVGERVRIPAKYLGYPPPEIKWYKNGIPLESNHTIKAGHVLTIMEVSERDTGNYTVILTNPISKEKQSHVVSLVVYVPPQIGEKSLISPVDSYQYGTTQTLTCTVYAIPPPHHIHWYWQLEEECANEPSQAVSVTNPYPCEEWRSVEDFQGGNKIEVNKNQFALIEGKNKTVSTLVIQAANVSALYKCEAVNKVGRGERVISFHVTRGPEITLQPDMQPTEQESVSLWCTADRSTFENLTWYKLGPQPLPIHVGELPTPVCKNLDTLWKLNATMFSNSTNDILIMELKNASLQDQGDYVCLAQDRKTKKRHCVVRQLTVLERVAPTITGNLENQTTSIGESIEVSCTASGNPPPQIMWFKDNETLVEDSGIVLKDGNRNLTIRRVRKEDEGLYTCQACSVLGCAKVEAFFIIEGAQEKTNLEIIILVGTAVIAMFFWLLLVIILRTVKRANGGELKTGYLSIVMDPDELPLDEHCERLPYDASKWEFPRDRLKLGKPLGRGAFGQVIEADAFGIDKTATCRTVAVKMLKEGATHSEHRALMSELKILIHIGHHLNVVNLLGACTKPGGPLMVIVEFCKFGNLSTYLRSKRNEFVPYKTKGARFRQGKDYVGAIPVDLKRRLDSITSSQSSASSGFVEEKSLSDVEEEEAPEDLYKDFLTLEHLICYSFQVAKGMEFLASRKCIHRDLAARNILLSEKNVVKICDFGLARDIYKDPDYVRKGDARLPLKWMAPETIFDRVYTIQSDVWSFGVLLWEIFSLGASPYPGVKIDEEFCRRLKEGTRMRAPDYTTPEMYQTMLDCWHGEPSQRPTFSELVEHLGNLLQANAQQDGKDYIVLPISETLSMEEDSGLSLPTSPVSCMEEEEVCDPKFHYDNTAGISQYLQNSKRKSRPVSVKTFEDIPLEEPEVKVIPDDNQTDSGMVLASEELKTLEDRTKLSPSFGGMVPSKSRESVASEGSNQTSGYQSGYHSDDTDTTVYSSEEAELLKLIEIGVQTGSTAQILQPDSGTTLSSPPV
UniProt P48357, residues 22-1165: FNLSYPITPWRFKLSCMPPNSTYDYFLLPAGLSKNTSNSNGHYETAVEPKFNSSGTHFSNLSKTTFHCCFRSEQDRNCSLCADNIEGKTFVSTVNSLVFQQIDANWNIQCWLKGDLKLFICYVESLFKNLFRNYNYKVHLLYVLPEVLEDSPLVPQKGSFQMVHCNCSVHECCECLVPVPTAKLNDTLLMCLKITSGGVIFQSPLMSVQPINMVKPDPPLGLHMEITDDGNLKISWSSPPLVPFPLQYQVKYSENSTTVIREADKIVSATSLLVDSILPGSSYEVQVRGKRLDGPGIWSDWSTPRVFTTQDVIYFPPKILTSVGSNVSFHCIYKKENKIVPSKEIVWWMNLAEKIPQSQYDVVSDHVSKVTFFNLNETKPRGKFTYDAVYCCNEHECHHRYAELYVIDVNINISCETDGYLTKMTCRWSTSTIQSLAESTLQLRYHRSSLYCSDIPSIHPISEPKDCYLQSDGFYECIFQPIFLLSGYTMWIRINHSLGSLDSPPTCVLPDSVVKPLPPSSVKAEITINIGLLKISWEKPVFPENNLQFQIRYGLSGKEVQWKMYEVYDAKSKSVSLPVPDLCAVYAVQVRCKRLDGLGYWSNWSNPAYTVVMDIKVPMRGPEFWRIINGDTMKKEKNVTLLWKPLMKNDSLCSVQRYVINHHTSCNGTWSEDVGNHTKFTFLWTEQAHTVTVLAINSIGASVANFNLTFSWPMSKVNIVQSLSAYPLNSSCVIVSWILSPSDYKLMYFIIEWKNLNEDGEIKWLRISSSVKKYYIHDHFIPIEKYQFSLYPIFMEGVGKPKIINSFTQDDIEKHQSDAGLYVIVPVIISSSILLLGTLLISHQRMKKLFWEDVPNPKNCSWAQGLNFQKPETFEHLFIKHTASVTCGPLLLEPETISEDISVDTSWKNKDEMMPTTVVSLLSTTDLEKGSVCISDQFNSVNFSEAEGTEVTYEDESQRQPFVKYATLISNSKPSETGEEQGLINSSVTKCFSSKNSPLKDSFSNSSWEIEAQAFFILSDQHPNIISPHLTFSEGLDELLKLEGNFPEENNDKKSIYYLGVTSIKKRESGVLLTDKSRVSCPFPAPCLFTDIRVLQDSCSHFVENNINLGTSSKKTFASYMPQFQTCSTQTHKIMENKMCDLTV

Biological target: vascular endothelial growth factor receptor 2 (VEGFR2) (human (endogenous in HUVEC)) (UniProt P35968)
Experiment: co-IP; VEGFR2 immunoprecipitated (VEGFR2 antibody, protein A-sepharose, 4°C overnight) from lysates (1% Triton, pH 7.4) of serum-starved HUVEC treated 5 min with vehicle, leptin (1 ng/mL) or VEGF (25 ng/mL); blots probed for ObRb

binding: no binding
Substance: leptin receptor, long form (ObRb) (from UniProt P48357-1 22-1165)
